The other results are listed elsewhere or left out.
Tests used:
Experiment in all cases: log2 fold change, soluble protein after heating vs DMSO (PISA); higher = thermal stabilisation; K562 lysate, 10 uM; active = over 0.2 and 3.5 SD of the protein, either way, in both replicates (recomputed)
alvocidib = compound: CN1CC[C@H](c2c(O)cc(O)c3c(=O)cc(-c4ccccc4Cl)oc23)[C@H](O)C1 [alvocidib]
In short: (§1)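 To prepare the extract, K562 pellets were dounce-homogenised in PBS pH 7.4 with 1 mM MgCl2, giving crude material at 1 mg/mL protein. This was treated with 10 μM compound for 30 min, then heated in aliquots for 3 min over 48°C-58°C before pooling and addition of NP-40 to 0.5% at 4°C. Centrifugation at 21,000xg for 90 min left soluble protein in the supernatant, which TMTpro 16plex LC-MS/MS quantified with equalised channel sums. Results are log-two fold changes in thermal stability compared with solvent controls, from duplicates.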

By UniProt entry, the sequences of proteins in these tests, tags left out. Where a name states a change or a piece, a line headed by the entry shows the natural chain unless it says otherwise.
UniProt Q86UA1: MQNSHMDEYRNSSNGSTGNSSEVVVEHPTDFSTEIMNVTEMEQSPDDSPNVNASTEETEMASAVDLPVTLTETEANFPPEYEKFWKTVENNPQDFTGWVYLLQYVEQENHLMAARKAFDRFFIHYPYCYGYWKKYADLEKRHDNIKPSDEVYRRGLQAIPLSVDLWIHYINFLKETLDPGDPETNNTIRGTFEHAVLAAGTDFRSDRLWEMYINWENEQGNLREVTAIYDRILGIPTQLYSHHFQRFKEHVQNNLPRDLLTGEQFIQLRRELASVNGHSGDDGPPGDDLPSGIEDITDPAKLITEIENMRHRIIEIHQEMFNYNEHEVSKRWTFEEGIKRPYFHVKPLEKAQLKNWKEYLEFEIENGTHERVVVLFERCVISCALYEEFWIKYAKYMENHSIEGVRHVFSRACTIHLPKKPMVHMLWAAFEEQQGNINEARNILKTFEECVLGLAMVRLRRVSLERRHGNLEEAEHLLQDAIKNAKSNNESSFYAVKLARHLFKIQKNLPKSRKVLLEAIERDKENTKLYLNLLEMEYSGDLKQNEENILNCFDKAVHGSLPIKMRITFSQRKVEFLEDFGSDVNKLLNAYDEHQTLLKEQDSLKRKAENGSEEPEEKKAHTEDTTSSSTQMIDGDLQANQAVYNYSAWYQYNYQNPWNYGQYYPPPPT
UniProt P30154, whole entry, looked up: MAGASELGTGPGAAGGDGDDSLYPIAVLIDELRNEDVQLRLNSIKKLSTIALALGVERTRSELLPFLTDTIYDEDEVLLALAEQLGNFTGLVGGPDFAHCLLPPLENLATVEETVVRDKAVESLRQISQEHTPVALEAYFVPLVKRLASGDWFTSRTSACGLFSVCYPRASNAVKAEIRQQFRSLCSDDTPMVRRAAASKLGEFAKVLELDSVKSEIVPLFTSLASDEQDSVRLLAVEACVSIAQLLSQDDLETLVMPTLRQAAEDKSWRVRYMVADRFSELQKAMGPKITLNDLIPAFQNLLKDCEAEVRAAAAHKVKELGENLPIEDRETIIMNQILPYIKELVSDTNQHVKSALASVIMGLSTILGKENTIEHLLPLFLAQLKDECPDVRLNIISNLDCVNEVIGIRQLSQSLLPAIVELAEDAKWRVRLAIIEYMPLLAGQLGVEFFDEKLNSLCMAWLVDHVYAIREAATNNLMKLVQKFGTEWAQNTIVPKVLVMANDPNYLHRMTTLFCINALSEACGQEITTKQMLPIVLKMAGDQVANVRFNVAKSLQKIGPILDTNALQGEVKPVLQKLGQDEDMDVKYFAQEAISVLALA
UniProt Q9Y3C6: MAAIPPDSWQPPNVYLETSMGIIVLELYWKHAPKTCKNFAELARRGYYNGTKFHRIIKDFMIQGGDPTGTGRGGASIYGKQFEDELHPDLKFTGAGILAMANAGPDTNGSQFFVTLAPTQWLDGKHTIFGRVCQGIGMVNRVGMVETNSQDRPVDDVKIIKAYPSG
UniProt P31323, whole entry, looked up: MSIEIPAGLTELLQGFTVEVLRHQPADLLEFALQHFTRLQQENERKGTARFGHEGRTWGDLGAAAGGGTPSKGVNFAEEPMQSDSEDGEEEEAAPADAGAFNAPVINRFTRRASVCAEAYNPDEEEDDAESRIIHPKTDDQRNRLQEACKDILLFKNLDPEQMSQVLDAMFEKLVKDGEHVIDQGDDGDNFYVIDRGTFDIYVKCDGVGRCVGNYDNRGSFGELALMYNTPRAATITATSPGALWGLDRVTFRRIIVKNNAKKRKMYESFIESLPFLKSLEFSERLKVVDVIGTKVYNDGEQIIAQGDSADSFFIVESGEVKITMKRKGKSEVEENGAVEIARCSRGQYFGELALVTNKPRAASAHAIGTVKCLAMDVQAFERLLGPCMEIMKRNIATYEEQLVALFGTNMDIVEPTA
UniProt Q96BP3: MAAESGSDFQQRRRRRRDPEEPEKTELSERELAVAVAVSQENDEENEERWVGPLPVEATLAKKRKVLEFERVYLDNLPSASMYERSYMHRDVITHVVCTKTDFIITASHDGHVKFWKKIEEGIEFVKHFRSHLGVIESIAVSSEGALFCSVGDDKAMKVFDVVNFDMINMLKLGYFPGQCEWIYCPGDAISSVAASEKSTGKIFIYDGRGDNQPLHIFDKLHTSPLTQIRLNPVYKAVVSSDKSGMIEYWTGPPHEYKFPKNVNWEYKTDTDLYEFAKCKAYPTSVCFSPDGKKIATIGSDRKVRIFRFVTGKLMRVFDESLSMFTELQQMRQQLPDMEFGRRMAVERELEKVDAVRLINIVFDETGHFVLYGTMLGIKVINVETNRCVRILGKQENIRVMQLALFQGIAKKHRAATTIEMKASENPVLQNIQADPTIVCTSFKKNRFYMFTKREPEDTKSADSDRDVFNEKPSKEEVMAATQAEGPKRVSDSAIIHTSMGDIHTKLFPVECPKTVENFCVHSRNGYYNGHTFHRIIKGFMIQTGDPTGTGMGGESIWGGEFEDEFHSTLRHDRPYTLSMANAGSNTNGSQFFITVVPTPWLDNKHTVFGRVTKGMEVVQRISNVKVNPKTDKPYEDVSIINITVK
UniProt P14314: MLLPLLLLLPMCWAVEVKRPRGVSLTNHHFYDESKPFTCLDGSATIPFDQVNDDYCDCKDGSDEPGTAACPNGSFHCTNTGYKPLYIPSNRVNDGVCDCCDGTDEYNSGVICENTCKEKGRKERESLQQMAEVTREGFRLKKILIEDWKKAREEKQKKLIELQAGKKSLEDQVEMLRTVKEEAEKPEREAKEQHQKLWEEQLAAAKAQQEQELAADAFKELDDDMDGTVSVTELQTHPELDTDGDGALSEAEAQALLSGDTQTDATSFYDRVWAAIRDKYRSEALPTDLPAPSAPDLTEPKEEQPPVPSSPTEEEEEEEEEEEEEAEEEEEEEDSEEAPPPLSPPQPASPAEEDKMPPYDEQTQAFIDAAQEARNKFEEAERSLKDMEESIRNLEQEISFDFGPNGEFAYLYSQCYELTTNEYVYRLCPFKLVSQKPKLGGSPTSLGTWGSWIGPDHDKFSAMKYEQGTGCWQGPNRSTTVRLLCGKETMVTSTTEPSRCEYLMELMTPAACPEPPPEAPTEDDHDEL
UniProt O14974: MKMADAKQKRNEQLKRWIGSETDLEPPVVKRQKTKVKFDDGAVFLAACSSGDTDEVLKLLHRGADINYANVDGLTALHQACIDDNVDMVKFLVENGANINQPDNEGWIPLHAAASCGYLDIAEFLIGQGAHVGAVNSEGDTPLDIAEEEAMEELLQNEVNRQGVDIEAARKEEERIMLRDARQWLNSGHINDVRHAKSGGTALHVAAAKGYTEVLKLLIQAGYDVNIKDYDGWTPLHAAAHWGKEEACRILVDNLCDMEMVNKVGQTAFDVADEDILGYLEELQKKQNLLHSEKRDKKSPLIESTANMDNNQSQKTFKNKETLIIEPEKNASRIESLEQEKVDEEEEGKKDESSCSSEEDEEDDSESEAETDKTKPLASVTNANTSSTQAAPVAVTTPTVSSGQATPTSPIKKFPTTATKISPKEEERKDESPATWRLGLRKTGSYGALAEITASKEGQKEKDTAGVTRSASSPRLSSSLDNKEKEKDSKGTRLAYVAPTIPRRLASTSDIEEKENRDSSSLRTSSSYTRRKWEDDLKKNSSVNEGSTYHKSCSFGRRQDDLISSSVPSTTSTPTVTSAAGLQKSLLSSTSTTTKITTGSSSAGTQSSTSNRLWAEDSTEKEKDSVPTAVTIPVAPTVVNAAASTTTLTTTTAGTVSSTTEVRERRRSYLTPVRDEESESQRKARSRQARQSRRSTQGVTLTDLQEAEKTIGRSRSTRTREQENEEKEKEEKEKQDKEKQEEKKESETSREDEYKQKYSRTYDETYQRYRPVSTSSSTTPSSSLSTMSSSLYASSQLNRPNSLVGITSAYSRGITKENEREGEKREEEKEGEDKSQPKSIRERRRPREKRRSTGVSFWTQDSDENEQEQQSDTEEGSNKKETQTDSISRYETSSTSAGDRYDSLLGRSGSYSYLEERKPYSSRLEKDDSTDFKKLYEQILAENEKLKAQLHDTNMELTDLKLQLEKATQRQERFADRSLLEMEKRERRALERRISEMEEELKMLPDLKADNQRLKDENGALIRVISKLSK
UniProt Q6IN85: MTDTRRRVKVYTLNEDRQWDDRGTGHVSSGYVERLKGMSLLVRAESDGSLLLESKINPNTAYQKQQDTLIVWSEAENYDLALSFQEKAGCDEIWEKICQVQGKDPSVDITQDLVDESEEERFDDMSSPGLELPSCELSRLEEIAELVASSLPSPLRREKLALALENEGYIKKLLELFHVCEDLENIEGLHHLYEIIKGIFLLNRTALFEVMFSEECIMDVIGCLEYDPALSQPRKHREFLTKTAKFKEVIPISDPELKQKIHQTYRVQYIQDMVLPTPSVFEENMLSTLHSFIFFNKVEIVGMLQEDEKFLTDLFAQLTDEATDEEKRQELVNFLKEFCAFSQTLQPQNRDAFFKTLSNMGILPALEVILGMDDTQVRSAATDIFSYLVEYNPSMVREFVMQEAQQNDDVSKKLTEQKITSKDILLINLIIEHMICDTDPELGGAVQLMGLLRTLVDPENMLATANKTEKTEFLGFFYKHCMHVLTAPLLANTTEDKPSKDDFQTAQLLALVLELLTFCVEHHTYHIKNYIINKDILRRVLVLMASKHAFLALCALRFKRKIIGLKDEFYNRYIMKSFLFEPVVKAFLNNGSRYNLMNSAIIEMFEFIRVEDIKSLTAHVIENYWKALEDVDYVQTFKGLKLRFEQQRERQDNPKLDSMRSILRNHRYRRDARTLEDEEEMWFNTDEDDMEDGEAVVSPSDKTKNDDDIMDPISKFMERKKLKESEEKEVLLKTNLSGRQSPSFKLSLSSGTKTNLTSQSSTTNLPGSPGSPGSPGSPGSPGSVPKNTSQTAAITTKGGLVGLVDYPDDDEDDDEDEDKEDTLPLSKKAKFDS
UniProt O60678: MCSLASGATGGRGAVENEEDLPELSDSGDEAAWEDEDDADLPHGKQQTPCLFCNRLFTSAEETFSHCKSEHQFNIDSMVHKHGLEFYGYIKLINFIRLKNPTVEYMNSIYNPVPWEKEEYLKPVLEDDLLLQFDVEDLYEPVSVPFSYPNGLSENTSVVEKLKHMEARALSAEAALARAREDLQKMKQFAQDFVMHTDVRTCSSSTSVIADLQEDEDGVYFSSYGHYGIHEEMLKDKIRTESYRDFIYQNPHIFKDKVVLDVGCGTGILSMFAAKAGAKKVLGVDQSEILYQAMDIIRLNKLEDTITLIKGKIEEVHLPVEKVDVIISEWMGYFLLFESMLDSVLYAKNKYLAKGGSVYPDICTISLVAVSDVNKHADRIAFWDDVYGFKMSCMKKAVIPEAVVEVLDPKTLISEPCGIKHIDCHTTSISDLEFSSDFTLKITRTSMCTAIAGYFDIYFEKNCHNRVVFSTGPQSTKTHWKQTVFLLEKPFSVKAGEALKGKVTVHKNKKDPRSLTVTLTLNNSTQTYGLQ
UniProt Q96QC0: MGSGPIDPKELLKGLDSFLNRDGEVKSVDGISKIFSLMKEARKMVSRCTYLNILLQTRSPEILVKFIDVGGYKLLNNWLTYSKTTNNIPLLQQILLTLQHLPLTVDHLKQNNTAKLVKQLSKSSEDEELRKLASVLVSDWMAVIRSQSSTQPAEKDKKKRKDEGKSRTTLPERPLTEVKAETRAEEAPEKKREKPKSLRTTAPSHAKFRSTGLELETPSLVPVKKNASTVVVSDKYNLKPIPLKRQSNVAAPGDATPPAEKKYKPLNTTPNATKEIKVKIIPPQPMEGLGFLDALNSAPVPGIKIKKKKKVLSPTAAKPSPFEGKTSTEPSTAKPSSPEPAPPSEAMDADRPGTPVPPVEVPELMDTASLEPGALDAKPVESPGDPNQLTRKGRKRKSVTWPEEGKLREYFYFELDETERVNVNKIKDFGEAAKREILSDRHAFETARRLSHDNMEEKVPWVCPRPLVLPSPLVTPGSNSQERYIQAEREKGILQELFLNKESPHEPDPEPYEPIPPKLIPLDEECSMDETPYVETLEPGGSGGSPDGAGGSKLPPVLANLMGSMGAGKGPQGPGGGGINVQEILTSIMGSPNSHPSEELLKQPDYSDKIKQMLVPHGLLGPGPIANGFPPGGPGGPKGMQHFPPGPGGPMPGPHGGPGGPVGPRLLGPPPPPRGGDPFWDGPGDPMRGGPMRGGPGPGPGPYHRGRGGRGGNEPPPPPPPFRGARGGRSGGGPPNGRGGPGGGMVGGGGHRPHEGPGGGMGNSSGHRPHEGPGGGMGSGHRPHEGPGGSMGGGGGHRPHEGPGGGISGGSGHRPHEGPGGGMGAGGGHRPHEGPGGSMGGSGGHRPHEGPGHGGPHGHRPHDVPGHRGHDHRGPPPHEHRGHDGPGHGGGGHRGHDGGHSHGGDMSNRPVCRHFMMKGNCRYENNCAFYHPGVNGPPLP

Tubastatin A = compound: CN1CCc2c(c3ccccc3n2Cc2ccc(C(=O)NO)cc2)C1 [Tubastatin A]
In short: as §1

[1] = compound: CNC(=O)C1=CC=CC=C1NC2=NC(=NC=C2Cl)NC3=C(C=C(C=C3)N4CCOCC4)OC
In short: as §1

defactinib = compound: CNC(=O)c1ccc(Nc2ncc(C(F)(F)F)c(NCc3nccnc3N(C)S(C)(=O)=O)n2)cc1 [defactinib]
In short: as §1

[2] = compound: CNc1nc(-c2ccc3c(N)n[nH]c3c2)cc(N2C[C@@H](C(=O)NC3CCCCC3)CC[C@H]2C)n1
In short: as §1

encorafenib = compound: COC(=O)N[C@@H](C)CNc1nccc(-c2cn(C(C)C)nc2-c2cc(Cl)cc(NS(C)(=O)=O)c2F)n1 [encorafenib]
In short: as §1

[3] = compound: COC(=O)[C@H](CCSC)NC(=O)C1=C(C=C(C=C1)NC[C@H](CS)N)C2=CC=CC=C2
In short: as §1

alisertib = compound: COc1cc(Nc2ncc3c(n2)-c2ccc(Cl)cc2C(c2c(F)cccc2OC)=NC3)ccc1C(=O)O [alisertib]
In short: as §1

[4] = compound: COc1cc2nc(-c3cc(F)ccc3O)nc(N[C@@H]3CNC[C@H]3C(C)(C)O)c2cc1OC
In short: as §1

gefitinib = compound: COc1cc2ncnc(Nc3ccc(F)c(Cl)c3)c2cc1OCCCN1CCOCC1 [gefitinib]
In short: as §1

lapatinib = compound: CS(=O)(=O)CCNCc1ccc(-c2ccc3ncnc(Nc4ccc(OCc5cccc(F)c5)c(Cl)c4)c3c2)o1 [lapatinib]
In short: as §1

pictilisib = compound: CS(=O)(=O)N1CCN(Cc2cc3nc(-c4cccc5[nH]ncc45)nc(N4CCOCC4)c3s2)CC1 [pictilisib]
In short: as §1

crizotinib = compound: C[C@@H](Oc1cc(-c2cnn(C3CCNCC3)c2)cnc1N)c1c(Cl)ccc(F)c1Cl [crizotinib]
In short: as §1

[5] = compound: C[C@H](C1=CC=C(C=C1)C(=O)NC2=C3C=CNC3=NC=C2)N
In short: as §1

duvelisib = compound: C[C@H](Nc1ncnc2nc[nH]c12)c1cc2cccc(Cl)c2c(=O)n1-c1ccccc1 [duvelisib]
In short: as §1

gandotinib = compound: Cc1cc(Nc2cc(CN3CCOCC3)c3nc(C)c(Cc4ccc(Cl)cc4F)n3n2)n[nH]1 [gandotinib]
In short: as §1

tozasertib = compound: Cc1cc(Nc2cc(N3CCN(C)CC3)nc(Sc3ccc(NC(=O)C4CC4)cc3)n2)n[nH]1 [tozasertib]
In short: as §1

doramapimod = compound: Cc1ccc(-n2nc(C(C)(C)C)cc2NC(=O)Nc2ccc(OCCN3CCOCC3)c3ccccc23)cc1 [doramapimod]
In short: as §1

bafetinib = compound: Cc1ccc(NC(=O)c2ccc(CN3CC[C@H](N(C)C)C3)c(C(F)(F)F)c2)cc1Nc1nccc(-c2cncnc2)n1 [bafetinib]
In short: as §1

[6] = compound: Cc1cccc(CC(=O)N2CCc3c2ccc(-c2cn(C)c4ncnc(N)c24)c3F)n1
In short: as §1

Target	log2 fold change (alvocidib)	log2 fold change (Tubastatin A)	log2 fold change [1]	log2 fold change (defactinib)	log2 fold change [2]	log2 fold change (encorafenib)	log2 fold change [3]	log2 fold change (alisertib)	log2 fold change [4]	log2 fold change (gefitinib)	log2 fold change (lapatinib)	log2 fold change (pictilisib)	log2 fold change (crizotinib)	log2 fold change [5]	log2 fold change (duvelisib)	log2 fold change (gandotinib)	log2 fold change (tozasertib)	log2 fold change (doramapimod)	log2 fold change (bafetinib)	log2 fold change [6]
PPP2CA (UniProt P67775)	inactive: -0.062	inactive: -0.018	inactive: 0.026	inactive: -0.064	inactive: -0.019	inactive: 0.128	active: -0.374	inactive: -0.016	inactive: -0.013	inactive: -0.009	inactive: -0.028	inactive: -0.001	inactive: 0.159	inactive: 0.051	inactive: -0.024	inactive: -0.022	inactive: -0.116	inactive: -0.049	inactive: 0.053	inactive: 0.03
PRPF38A (UniProt Q8NAV1)	inactive: -0.178	inactive: -0.068	inactive: -0.147	inactive: 0.013	inactive: -0.004	inactive: 0.115	inactive: -0.009	inactive: -0.044	inactive: 0.013	inactive: -0.017	inactive: -0.001	inactive: 0.039	inactive: -0.248	active: -0.399	inactive: 0.03	inactive: 0.024	inactive: -0.034	inactive: 0.012	inactive: -0.055	inactive: 0.121
PRMT5 (UniProt O14744)	active: 0.318	inactive: -0.009	inactive: 0.008	inactive: -0.019	inactive: 0.013	inactive: -0.015	inactive: -0.099	inactive: 0	inactive: 0.011	inactive: -0.023	inactive: -0.029	inactive: -0.012	inactive: 0	inactive: -0.02	inactive: 0.158	inactive: 0.011	inactive: 0.017	inactive: -0.004	inactive: -0.021	inactive: -0.008
PRPF39 (UniProt Q86UA1)	inactive: 0.015	inactive: 0.033	inactive: 0.01	inactive: 0.008	inactive: -0.011	inactive: -0.009	inactive: 0.201	inactive: 0.025	inactive: 0.007	inactive: 0.006	inactive: -0.025	inactive: -0.061	inactive: -0.015	inactive: -0.073	inactive: -0.035	inactive: -0.05	inactive: 0.015	inactive: 0.047	inactive: -0.093	inactive: 0.105
PPP2R1B isoform 2 (UniProt P30154)	inactive: 0.018	inactive: -0.034	inactive: -0.044	inactive: -0.028	inactive: -0.016	inactive: -0.001	inactive: 0.018	inactive: 0.003	inactive: 0.005	inactive: -0.011	inactive: -0.012	inactive: 0.002	inactive: -0.053	inactive: 0.024	inactive: -0.008	inactive: -0.097	inactive: 0.015	inactive: -0.019	inactive: -0.005	inactive: -0.022
PRPF18 (UniProt Q99633)	inactive: -0.004	inactive: -0.029	inactive: 0.016	inactive: 0.008	inactive: -0.007	inactive: -0.014	inactive: -0.163	inactive: -0.034	inactive: 0.017	inactive: 0.029	inactive: 0.012	inactive: -0.024	inactive: -0.011	inactive: -0.008	inactive: -0.034	inactive: -0.006	inactive: -0.021	inactive: 0.103	inactive: 0.015	inactive: 0.014
PPP2R1A (UniProt P30153)	inactive: 0.019	inactive: -0.02	inactive: 0.007	inactive: 0.003	inactive: -0.046	inactive: -0.016	inactive: -0.045	inactive: -0.019	inactive: -0.007	inactive: -0.032	inactive: -0.032	inactive: 0	inactive: 0.039	inactive: 0.026	inactive: 0	inactive: -0.055	inactive: 0.001	inactive: -0.013	inactive: 0.019	inactive: -0.031
PPIL1 (UniProt Q9Y3C6)	inactive: 0.021	inactive: -0.046	inactive: 0.007	inactive: 0.009	inactive: 0.002	inactive: -0.001	inactive: -0.073	inactive: -0.004	inactive: -0.043	inactive: -0.04	inactive: -0.018	inactive: 0.011	inactive: -0.017	inactive: -0.01	inactive: -0.027	inactive: -0.046	inactive: 0.043	inactive: 0.029	inactive: 0.012	inactive: -0.022
PRKAR2B (UniProt P31323)	inactive: 0	inactive: -0.021	inactive: -0.05	inactive: -0.117	inactive: -0.023	inactive: 0.04	inactive: 0.1	inactive: -0.014	inactive: -0.032	inactive: -0.046	inactive: 0.013	inactive: -0.059	inactive: -0.007	inactive: -0.011	inactive: 0	active: -0.31	inactive: 0.038	inactive: 0.017	inactive: -0.02	inactive: 0.001
PPWD1 (UniProt Q96BP3)	inactive: 0.019	inactive: 0.009	inactive: 0.016	inactive: 0.001	inactive: 0.02	inactive: 0.009	inactive: 0.005	inactive: 0.003	inactive: -0.001	inactive: -0.01	inactive: -0.011	inactive: 0.002	inactive: -0.006	inactive: 0.007	inactive: -0.028	inactive: -0.03	inactive: 0.014	inactive: 0.006	inactive: -0.03	inactive: -0.015
PRIM2 (UniProt P49643)	inactive: -0.008	inactive: -0.138	inactive: 0.033	inactive: -0.01	inactive: 0.009	inactive: -0.002	inactive: 0.035	inactive: -0.017	inactive: -0.009	inactive: 0.01	inactive: 0.045	inactive: -0.025	inactive: -0.017	inactive: 0.007	inactive: -0.002	inactive: -0.056	inactive: -0.04	inactive: 0.028	inactive: -0.1	inactive: 0.004
PRKCSH (UniProt P14314)	inactive: 0.009	inactive: 0.039	inactive: -0.001	inactive: -0.014	inactive: -0.035	inactive: -0.003	inactive: -0.036	inactive: -0.006	inactive: 0.024	inactive: 0.024	inactive: -0.004	inactive: -0.004	inactive: 0.062	inactive: 0.046	inactive: 0.022	inactive: -0.023	inactive: 0.02	inactive: -0.042	inactive: 0.05	inactive: -0.088
PPP1R12A (UniProt O14974)	inactive: 0.008	inactive: -0.046	inactive: 0.01	inactive: 0.012	inactive: 0.008	inactive: 0.008	inactive: -0.023	inactive: 0.019	inactive: -0.014	inactive: -0.006	inactive: 0.002	inactive: 0.007	inactive: -0.014	inactive: -0.038	inactive: 0.001	inactive: 0.009	inactive: 0.002	inactive: 0.012	inactive: -0.038	inactive: 0.037
PPP4R3A (UniProt Q6IN85)	inactive: -0.028	inactive: 0.02	inactive: -0.006	inactive: 0.002	inactive: -0.005	inactive: -0.003	inactive: 0.031	inactive: 0.007	inactive: -0.014	inactive: 0.018	inactive: 0.017	inactive: -0.032	inactive: 0.008	inactive: -0.141	inactive: -0.012	inactive: 0.025	inactive: 0.024	inactive: 0.019	inactive: -0.04	inactive: 0.068
PRMT3 (UniProt O60678)	inactive: 0.01	inactive: 0.025	inactive: -0.003	inactive: -0.006	inactive: 0.023	inactive: -0.013	inactive: -0.03	inactive: 0.001	inactive: 0.008	inactive: -0.034	inactive: -0.03	inactive: -0.026	inactive: -0.024	inactive: 0.007	inactive: -0.011	inactive: -0.042	inactive: 0.01	inactive: 0.023	inactive: 0.034	inactive: 0.005
PPP1R10 (UniProt Q96QC0)	inactive: -0.025	inactive: -0.033	inactive: 0.034	inactive: 0.008	inactive: 0.028	inactive: 0.086	inactive: -0.028	inactive: 0.014	inactive: 0.003	inactive: 0.003	inactive: -0.013	inactive: -0.001	inactive: -0.003	inactive: 0.009	inactive: -0.011	inactive: 0.07	inactive: -0.023	inactive: 0.082	inactive: -0.079	inactive: 0.024

In a second layout: entries from further up.
Target,log2 fold change (alvocidib),log2 fold change (Tubastatin A),log2 fold change [1],log2 fold change (defactinib),log2 fold change [2],log2 fold change (encorafenib),log2 fold change [3],log2 fold change (alisertib),log2 fold change [4],log2 fold change (gefitinib),log2 fold change (lapatinib),log2 fold change (pictilisib),log2 fold change (crizotinib),log2 fold change [5],log2 fold change (duvelisib),log2 fold change (gandotinib),log2 fold change (tozasertib),log2 fold change (doramapimod),log2 fold change (bafetinib),log2 fold change [6]
PPIL1 (UniProt Q9Y3C6),inactive: 0.021,inactive: -0.046,inactive: 0.007,inactive: 0.009,inactive: 0.002,inactive: -0.001,inactive: -0.073,inactive: -0.004,inactive: -0.043,inactive: -0.04,inactive: -0.018,inactive: 0.011,inactive: -0.017,inactive: -0.01,inactive: -0.027,inactive: -0.046,inactive: 0.043,inactive: 0.029,inactive: 0.012,inactive: -0.022
PRKAR2B (UniProt P31323),inactive: 0,inactive: -0.021,inactive: -0.05,inactive: -0.117,inactive: -0.023,inactive: 0.04,inactive: 0.1,inactive: -0.014,inactive: -0.032,inactive: -0.046,inactive: 0.013,inactive: -0.059,inactive: -0.007,inactive: -0.011,inactive: 0,active: -0.31,inactive: 0.038,inactive: 0.017,inactive: -0.02,inactive: 0.001

Reference: the supplement of paper PMC10849652
